The filed quantity is “Percent Effect” (%).
How 0% and 100% were set is not recorded. Most values in the screen are low, and negative values occur.
This is an unselected part of the compounds tested.

By UniProt entry, the sequences of proteins in these tests, tags left out. Residues count along the entry.
UniProt I6X8D2, whole entry: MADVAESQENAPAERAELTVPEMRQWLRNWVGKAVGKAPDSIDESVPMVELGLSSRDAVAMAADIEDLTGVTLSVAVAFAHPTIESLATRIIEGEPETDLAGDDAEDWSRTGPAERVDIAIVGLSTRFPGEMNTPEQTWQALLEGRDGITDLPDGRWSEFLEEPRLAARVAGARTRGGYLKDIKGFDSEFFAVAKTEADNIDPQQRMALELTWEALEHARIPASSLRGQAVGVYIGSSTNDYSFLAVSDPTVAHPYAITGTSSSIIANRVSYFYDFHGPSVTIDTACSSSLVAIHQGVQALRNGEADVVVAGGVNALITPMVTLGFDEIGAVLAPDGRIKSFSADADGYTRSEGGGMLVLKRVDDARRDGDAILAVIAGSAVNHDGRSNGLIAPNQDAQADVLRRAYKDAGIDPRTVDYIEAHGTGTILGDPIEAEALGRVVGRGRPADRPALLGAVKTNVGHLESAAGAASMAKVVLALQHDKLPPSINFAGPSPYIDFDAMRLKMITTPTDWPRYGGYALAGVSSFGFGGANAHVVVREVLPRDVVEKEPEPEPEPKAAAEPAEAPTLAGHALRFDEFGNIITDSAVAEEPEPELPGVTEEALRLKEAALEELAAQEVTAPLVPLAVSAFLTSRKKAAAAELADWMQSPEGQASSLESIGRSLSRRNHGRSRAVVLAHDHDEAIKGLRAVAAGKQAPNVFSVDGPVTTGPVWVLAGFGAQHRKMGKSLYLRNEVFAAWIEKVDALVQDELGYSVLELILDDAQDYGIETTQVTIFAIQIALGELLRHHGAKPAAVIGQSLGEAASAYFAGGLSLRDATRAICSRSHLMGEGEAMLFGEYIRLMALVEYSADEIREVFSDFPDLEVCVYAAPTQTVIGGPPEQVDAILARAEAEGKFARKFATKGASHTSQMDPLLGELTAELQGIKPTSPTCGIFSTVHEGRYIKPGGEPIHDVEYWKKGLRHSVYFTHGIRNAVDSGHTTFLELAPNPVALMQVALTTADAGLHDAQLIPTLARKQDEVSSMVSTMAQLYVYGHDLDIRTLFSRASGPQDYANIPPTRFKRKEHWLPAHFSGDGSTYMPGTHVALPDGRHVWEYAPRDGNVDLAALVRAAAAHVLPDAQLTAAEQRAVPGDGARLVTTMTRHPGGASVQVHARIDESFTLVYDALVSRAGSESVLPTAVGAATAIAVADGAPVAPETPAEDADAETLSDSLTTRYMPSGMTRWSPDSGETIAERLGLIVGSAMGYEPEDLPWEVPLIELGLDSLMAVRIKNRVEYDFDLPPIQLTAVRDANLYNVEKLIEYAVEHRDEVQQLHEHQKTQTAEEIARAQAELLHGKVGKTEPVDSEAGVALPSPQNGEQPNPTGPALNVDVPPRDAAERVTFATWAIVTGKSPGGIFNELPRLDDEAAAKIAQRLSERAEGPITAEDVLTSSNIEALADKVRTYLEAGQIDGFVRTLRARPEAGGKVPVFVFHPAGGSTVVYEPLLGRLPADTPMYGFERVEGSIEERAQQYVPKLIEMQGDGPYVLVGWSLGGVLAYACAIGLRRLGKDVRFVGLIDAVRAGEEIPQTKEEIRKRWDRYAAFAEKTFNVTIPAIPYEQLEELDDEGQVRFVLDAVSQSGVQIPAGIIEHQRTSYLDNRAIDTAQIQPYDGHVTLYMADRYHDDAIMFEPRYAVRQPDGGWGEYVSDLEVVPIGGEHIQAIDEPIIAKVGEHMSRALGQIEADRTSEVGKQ
UniProt Q8IDJ8, 1-583: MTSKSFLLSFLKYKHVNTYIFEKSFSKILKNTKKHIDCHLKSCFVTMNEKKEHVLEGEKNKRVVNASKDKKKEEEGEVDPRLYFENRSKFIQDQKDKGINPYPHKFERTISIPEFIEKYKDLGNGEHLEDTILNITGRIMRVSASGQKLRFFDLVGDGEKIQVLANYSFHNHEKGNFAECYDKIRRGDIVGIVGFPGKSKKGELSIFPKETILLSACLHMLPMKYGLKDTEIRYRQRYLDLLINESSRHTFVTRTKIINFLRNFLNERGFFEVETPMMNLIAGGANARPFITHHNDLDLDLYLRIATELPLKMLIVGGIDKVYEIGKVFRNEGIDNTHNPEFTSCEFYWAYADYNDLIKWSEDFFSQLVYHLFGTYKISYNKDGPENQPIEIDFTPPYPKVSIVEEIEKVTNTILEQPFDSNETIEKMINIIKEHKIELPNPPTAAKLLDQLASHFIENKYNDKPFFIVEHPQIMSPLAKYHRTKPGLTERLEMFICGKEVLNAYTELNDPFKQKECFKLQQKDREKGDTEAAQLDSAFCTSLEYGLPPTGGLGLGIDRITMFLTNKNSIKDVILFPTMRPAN
UniProt P9WNZ1, whole entry: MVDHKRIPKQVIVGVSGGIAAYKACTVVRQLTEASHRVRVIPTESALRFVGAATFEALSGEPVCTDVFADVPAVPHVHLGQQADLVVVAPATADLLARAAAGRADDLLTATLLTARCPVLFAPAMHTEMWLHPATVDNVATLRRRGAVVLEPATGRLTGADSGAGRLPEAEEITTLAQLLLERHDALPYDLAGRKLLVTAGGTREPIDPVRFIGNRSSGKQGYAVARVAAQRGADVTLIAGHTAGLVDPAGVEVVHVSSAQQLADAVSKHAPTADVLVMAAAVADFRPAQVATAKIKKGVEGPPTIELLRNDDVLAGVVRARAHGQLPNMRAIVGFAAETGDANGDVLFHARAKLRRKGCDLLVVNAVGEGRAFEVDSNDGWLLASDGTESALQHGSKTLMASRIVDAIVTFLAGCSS

A: 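Assay of Toxoplasma gondii numbers, read through their beta-galactosidase reporter with a colour substrate. Tested at 10 µM. The record gives no direction; the compounds picked for IC50 retests had high values, so higher reads as fewer parasites. Size under these conditions: about 67,000 compounds, about 260 of them at 50% or above in at least one test.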
B: 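Enzyme assay of the thioesterase domain of polyketide synthase 13; the read-out is not stated. Target: Polyketide synthase Pks13, Mycobacterium tuberculosis (UniProt I6X8D2). Tested at 30 µM. The record gives no direction; the compounds picked for IC50 retests had high values, so higher reads as stronger inhibition. Of about 67,000 compounds tested this way, about 300 (0.46%) reached 50% or more in at least one test.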
C: 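Lysine-tRNA ligase, Plasmodium falciparum 3D7 (UniProt Q8IDJ8). Enzyme assay of the cytosolic lysyl-tRNA synthetase in 384-well plates, read by luminescence. Tested at 30 µM. Higher reads as stronger inhibition, judged from the few compounds that gave an IC50. Size under these conditions: about 69,000 compounds, about 49 of them at 50% or above in at least one test.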
D: 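Enzyme assay of CoaBC with a phosphate dye (Biomol Green) read at 650 nm. Target: Coenzyme A biosynthesis protein CoaBC, Mycobacterium tuberculosis (UniProt P9WNZ1). Tested at 30 µM. Higher reads as stronger inhibition, judged from the few compounds that gave an IC50. Most strong results did not repeat in a second test. Size under these conditions: about 67,000 compounds, about 40 of them at 50% or above in at least one test.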

- O=C(O)C(F)(F)F.c1cnc(N2CCC3(CN(CC4CCOC4)C3)C2)nc1 (configuration not stated) | A: 3.738%
- O=C(NC1CC1)c1cc(C2CC2)nc2onc(C3CCNCC3)c12 | A: 10.15%; B: -8.189%; C: 3.151%; D: 3.421%
- Cc1c(-c2c(-c3ccccc3)ncn2[C@H](CO)C(=O)O)cnn1C | A: 13.05%; B: -34.36%; C: 4.081%; D: 1.739%
- CN(C(=O)NCCCNc1ccccn1)C1CCS(=O)(=O)C1 (configuration not stated) | A: 4.307%; B: -28.91%; C: 8.215%; D: 4.538%
- O=C(O)C(F)(F)F.c1cnc(N2CCOCC3(CN(Cc4cc[nH]n4)CCO3)C2)nc1 (configuration not stated) | A: -48.64%
- Cl.[H][C@]12CN(C(=O)NCC3CCCCC3)[C@]([H])(CN1)C2 | A: -18.84%
- [H][C@@]12CN(C(C)=O)CCO[C@]1([H])CN(S(=O)(=O)c1ccccc1F)C2 | A: -13.39%
- CC(C)(C)Nc1nc(-c2cccnc2)c(-c2ccnc(NCCO)n2)s1 | A: 85.15%; B: 121.2%; C: 4.331%; D: 3.735%
- Cc1nsc(NC(=O)NC2CCCN(C)C2)n1 (configuration not stated) | A: -1.52%; B: -16.79%; C: -4.424%; D: 3.194%
- Fc1cccc(N2CCCC3(CN(Cc4ccncc4)CCO3)C2)c1.O=C(O)C(F)(F)F.O=C(O)C(F)(F)F.O=C(O)C(F)(F)F (configuration not stated) | A: 1.498%
- CC(C)N1CCC2(CC1)CC(NCc1ccccn1)c1ccccc1O2.O=C(O)C(F)(F)F.O=C(O)C(F)(F)F.O=C(O)C(F)(F)F (configuration not stated) | A: 9.204%
- CN(C)C(=O)C1CCCN1C(=O)c1ccc(Cn2ccnc2)o1 (configuration not stated) | A: -1.665%; B: -26.56%; C: 5.766%; D: 2.581%
- O=C(O)C(F)(F)F.O=C(O)C(F)(F)F.c1cncc(COCc2nnc3n2CCN(Cc2ccsc2)C3)c1 | A: -5.313%
- Cc1nn(C)c(C)c1C1CCCN1C(=O)CCc1ccco1 (configuration not stated) | A: -33.05%; B: -9.073%; C: 1.383%; D: -6.691%
- O=C(NCCCNc1ccc(C(F)(F)F)cn1)c1ccc2c(c1)OCO2 | A: -13.87%; B: 6.409%; C: 0.6538%; D: 3.069%
- COCC(=O)Nc1cnc(N2CCCC2)nc1 | A: -40.12%; B: -7.231%; C: 5.944%; D: -0.6274%
- Cc1cccc(CN2Cc3ccnn3CC(COCC3CC3)C2)n1.O=C(O)C(F)(F)F (configuration not stated) | A: 2.2%
- CCN(Cc1cccc(C)c1)Cn1nc(C)c2c(C)onc2c1=O | A: -10.51%; B: -0.4385%; C: 0.9367%; D: 5.093%
- c1nc(N2CCCC2)ncc1CN1CCCC(CN2CCCCC2)C1 (configuration not stated) | A: 21.22%; B: 2.797%; C: 4.46%; D: -2.265%
- Cc1occc1C(=O)N1CCOC2(CCCC2)C1 | A: 20.09%; B: -18.25%; C: 0.7313%; D: 6.364%
- CC(C)CCC(=O)N(C)CC(=O)Nc1ccc(Br)cn1 | A: 6.003%; B: -13.23%; C: -0.1408%; D: 3.133%
- CN(C)C(=O)COCc1nnc2n1CCN(Cc1ccoc1)C2.O=C(O)C(F)(F)F | A: 5.38%
- [H][C@]12CCN(c3cc(OC)ncn3)[C@@]1([H])C[C@@H](C(=O)NCC1CC1)O2 | A: 12.23%
- CN(c1nc(Cn2cc(Br)ccc2=O)cs1)C1CC1 | A: -2.53%; B: -23.58%; C: 2.744%; D: 7.229%
- Cc1ccc([C@]2(O)CC[C@H]3CN(Cc4cccc(Cl)c4Cl)C[C@H]32)nc1 | B: -77.52%; C: 6.453%; D: 3.333%
- COCCOCC(=O)NC(C#N)c1cccc(Cl)c1Cl (configuration not stated) | A: -55.41%; B: -18.4%; C: 5.613%; D: 3.722%
- CC1N(c2cnn(C)c2)C(=O)COC12CCN(Cc1ccco1)CC2.O=C(O)C(F)(F)F (configuration not stated) | A: -7.554%
- Cc1cc(NC(C)c2csc(C)n2)n2nc(C)c(C)c2n1 (configuration not stated) | A: -12.14%; B: 4.392%; C: -5.387%; D: 11.79%
- O=C(O)C(F)(F)F.O=C(O)c1c(NC2CCC2)ncc2c1CCN(C1CCOC1)C2 (configuration not stated) | A: -8.145%
- CC[C@H](CO)NC(=O)c1coc(COc2cccc(F)c2F)n1 | A: 4.901%; B: -23.47%; C: 0.6738%; D: 3.325%
- CCOCCCn1c(NC(=O)c2cnn(C)c2)nc2ccccc21 | A: 5.717%; B: -6.327%; C: 4.069%; D: 3.373%

Repeated from the top, 3 entries:

* O=C(O)C(F)(F)F.c1cnc(N2CCC3(CN(CC4CCOC4)C3)C2)nc1 (configuration not stated) : A: 3.738%
* O=C(NC1CC1)c1cc(C2CC2)nc2onc(C3CCNCC3)c12 : A: 10.15%; B: -8.189%; C: 3.151%; D: 3.421%
* Cc1c(-c2c(-c3ccccc3)ncn2[C@H](CO)C(=O)O)cnn1C : A: 13.05%; B: -34.36%; C: 4.081%; D: 1.739%

The values are deposited in ChEMBL (CHEMBL3988442, “University of Dundee, Small-Polar-MMV Screening Library” (2021)).